Laboratory results as given in the supplement of paper PMC3334620.
The full ranking holds about 33,000 sequences; the median of “E-score (-0.5 to 0.5)” is about -8e-05, and the highest 2% start at about 0.23. This is one part of the list.

molecular target: T1, Nrg2 (UniProt P38082); test: PBM E-score (8-mer binding enrichment) (E-score (-0.5 to 0.5)); higher = stronger / more preferred TF binding; details: protein concentration: 100 nM; construct: GST-full length
T1 sequence: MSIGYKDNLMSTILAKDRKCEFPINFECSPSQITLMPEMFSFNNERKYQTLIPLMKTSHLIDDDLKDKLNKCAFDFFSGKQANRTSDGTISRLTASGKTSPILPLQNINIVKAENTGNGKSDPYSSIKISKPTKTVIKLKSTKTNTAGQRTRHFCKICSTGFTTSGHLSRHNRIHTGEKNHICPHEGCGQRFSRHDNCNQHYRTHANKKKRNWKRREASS
Method in brief: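 Universal all-10-mer Agilent arrays, fresh or stripped once, were converted to double-stranded form by primer extension. GST-tagged yeast transcription factors from PURExpress in vitro transcription/translation, full-length or DNA-binding domain only, were applied at about 100-200 nM and detected with fluorescent anti-GST. After masliner normalisation, the Universal PBM Analysis Suite scored each ungapped eight-base word together with its reverse complement by E-score.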

Sequence | PBM E-score
AACCTAGC | -0.0348
TGCGTCAA | -0.0115
CAATTCCC | 0.0815
CATTGCAC | 0.165
TCCGACGA | 0.0566
ATCCGAAC | 0.0668
AGAGCCGA | -0.0254
AGCTTTCC | -0.116
AGGTGAGA | -0.0485
GGCTATTA | 0.0568
CTAGTACA | 0.0576
CTCTGTGA | 0.112
CGTACCAA | 0.101
ACGTGATG | 0.0423
ACCACGAA | -0.135
GTGGACGA | 0.0664
AAACAGCG | 0.0913
ATGGCAGC | -0.0143
CTCACTGC | -0.134
AGGAAAAC | 0.151
TTTAAAAA | -0.137
GACTATTA | -0.0192
ATAACGAT | -0.019
AGGGAATC | 0.0536
ATGGATAA | 0.0508

Sequence | PBM E-score
CATGTAGG | 0.092
AGCCGTCG | 0.0289
AGGGAAGA | -0.122
ACTGCGCG | 0.0745
AAATACTG | 0.0929
CACGGAGG | -0.108
CAAGTATA | -0.171
CATACGGG | -0.132
CCCACAAC | -0.0138
CGGTGGGA | -0.0593
AAAACTCT | -0.145
CACTCGCA | -0.0229
ATAGGCCA | 0.00867
AGCGTGCA | -0.00392
ATTCACTG | -0.163
CTAATGGC | 0.0859
GATACTGC | 0.137
CACCGGGG | -0.413
ATCTGAAA | 0.0543
AGACGTCC | -0.149
CCCTGTAG | 0.128
GACAAGTA | 0.0148
ACAAACCG | -0.154
CGCTCGAA | 0.0436
AGGTCCTG | -0.123

Sequence | PBM E-score
AGAGCTTC | -0.0634
AAACCACA | 0.134
ACGAAACG | -0.0152
TAGATAAA | 0.0121
GGTGGATA | -0.0533
CACTCAAC | 0.227
GCTGCTTA | -0.213
GACTAACC | -0.0733
ACATAGTG | 0.103
CCAATTGG | 0.106
CCGTTTTA | 0.117
CAACCCCC | -0.402
CGGCCCGA | 0.0102
CAAGTCCA | 0.0256
CAACACGA | 0.127
CGAATAAG | -0.0297
AACGCAAG | 0.0369
GTATCGTA | 0.0702
TCGACCGA | -0.018
GCCTACGA | 0.102
ACCACGCC | -0.279
AAGCAAGA | 0.0236
ACCATTGA | -0.13
CTTATAGA | 0.0633
GACAATCC | 0.143

Given in CSV form: part of the list above
Sequence,PBM E-score
GGTGGATA,-0.0533
CACTCAAC,0.227
GCTGCTTA,-0.213
GACTAACC,-0.0733
ACATAGTG,0.103
CCAATTGG,0.106
CCGTTTTA,0.117

(next part)

Sequence | PBM E-score
TAAGTCAA | 0.0319
ACCGGGCG | -0.186
ATGGTTTC | -0.0123
CAATTGGA | 0.0313
AGTACTGA | 0.0453
ATGCTAGC | 0.00027
ACTATCAG | -0.0384
CAGACCGC | 0.13
AATCAGTC | 0.0108
CCAAAAAC | 0.161
AGATCTCG | 0.0592
CACATTCA | -0.00281
TCGAGTAA | 0.131
AGCTGTTG | 0.133
AGGCGCCT | -0.0863
ATGAGAAG | -0.0215
ACGCGAGC | 0.151
GAGGTCCA | -0.0725
CAAACTGG | 0.0464
GCAGTAGC | -0.182
AACGAATA | 0.00143
CACCCTCG | 0.0261
ACGGGGAT | 0.18
CTTGGGTC | 0.0035
AGGCAATA | 0.0391

Quoted at random: 5 entries already listed
Sequence | PBM E-score
CTCACTGC | -0.134
CCGTTTTA | 0.117
TGCGTCAA | -0.0115
AGGTGAGA | -0.0485
AACCTAGC | -0.0348

The listing continues.

Sequence | PBM E-score
TTGGAAAA | -0.0283
CGAGGCCG | -0.107
AAGTCTGA | -0.184
CTAGGGAC | 0.00608
CACAGAAC | -0.162
GTGTCTCA | 0.0319
CAGCCATA | -0.0469
AGTACGAC | 0.105
AGCCATTC | 0.0767
CTTGTCAA | -0.158
AATAATAT | 0.283
AGGAGAAG | -0.118
GACATCTA | 0.108
CACGTGTA | 0.0418
CCACATGG | -0.138
ATCCCCAT | 0.124
CCGTACGC | 0.0223
ATGTATGC | 0.0964
GCGGGAGC | -0.182
AAGCCGGT | 0.0724
CAAGGGAG | -0.0764
AGCTTCGC | -0.0781
TATTGTGA | 0.19
AAAGACTA | -0.174
CGTCCTAG | -0.237

Sequence | PBM E-score
CCCCATCA | 0.115
CAGCTATC | -0.0378
ATCTAATA | 0.14
CGTAGATC | 0.0509
ACTAGACA | 0.0308
AGAGGATA | -0.169
GTTCCGGA | 0.0583
CCTGCCAG | -0.0812
ACGTTCCG | -0.164
ATGATCCG | -0.139
AGTGGTAC | -0.115
AAAACGAC | 0.00163
ATGCAGCG | -0.0706
AGAATAGG | 0.196
GCTGTGCA | -0.0522
GGCAGGCC | -0.16
CCCCCCGC | -0.359
GGCCAGCA | 0.0667
CAAAGGTG | -0.0273
CCCAATCC | 0.0106
CCATCAGC | -0.0593
GGAGACAA | 0.178
CCAGGTTC | -0.211
AATCCTAT | 0.102
GCGACCCA | -0.0904

Sequence | PBM E-score
CTTTCCTC | -0.169
GGATATGA | 0.111
CGGAAGAG | -0.116
ACCTACGG | -0.376
AAAAATAC | 0.102
ACAAACTC | 0.124
CTCTCGAA | -0.0216
GTGAACTA | 0.0422
GAAGGAAC | -0.113
TGCCGCCA | 0.0203
AATCAGAT | 0.139
AAGTCGGA | 0.0274
AGCTCGAG | 0.0655
AACTAGAC | 0.0987
CGTATACG | -0.0658
GTCATATA | 0.0285
GAGCGCAC | 0.0755
ATCAGGCC | -0.0823
GAATTTCC | 0.252
CAGAGGCG | -0.0648
TAGTTACA | -0.0277
CAGTCTTC | -0.226
